Laboratory results: PubChem BioAssay AID504791 (Drosophila RNAi Screening Center, 2011)
The deposit covers about 23,000 reagents; shown is a random part of those that have a named target and a result. In the full data, 199 (0.86%) got an active call. 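Plate-scaled ratios behind the calls are not deposited; printed light signals are raw; many rows marked increased or decreased are still called inactive.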 A plus sign joins genes that one reagent is predicted to hit. The record does not give: the direction of the score.

Aim: 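Genes of the fly required for silencing by miRNA, siRNA or endo-siRNA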 (primary screen)
Cell system: Drosophila S2-derived reporter cells
Knock-down reagent: long dsRNA against Drosophila genes, about 150-250 ng dsRNA per well (siRNA assay); about 80-120 ng (miRNA assay)
Timing: about 5 days (siRNA assay); about 4 days (miRNA assay)
Treatment: copper sulfate induction of reporters: 25 µM (siRNA assay); 200 mM stated (miRNA assay), 1-2 days before reading
Measurement: 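Per-well ratio of Renilla over firefly light, expressed relative to that plate's average ratio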
Units: stable assay Renilla, run 1 in luminescence; stable assay firefly, run 1 in luminescence
Active means: 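First-pass picks had plate-scaled ratios over 1.5 for the siRNA assay, over 1.6 for the miRNA assay, or under 0.6; two distinct dsRNAs had to score alike on retest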

gene	dsRNA	miRNA reporter change	stable assay Renilla, run 1	stable assay firefly, run 1	Call
Tif-IA	DRSC03717		84026	3.54e5	inactive
Tif-IA	DRSC03726		7447	5.34e5	inactive
CG12470	DRSC18620		7176	4.21e5	inactive
CG15543	DRSC15081		6240	3.96e5	inactive
CG14803	DRSC18556		5860	4.14e5	inactive
CG8641	DRSC11028		6487	3.88e5	inactive
CG32278 + CG14963	DRSC22203		7911	4.63e5	inactive
CG2889	DRSC18236		5251	3.73e5	inactive
CG6168	DRSC10596		6671	3.64e5	inactive
nw	DRSC06749		9205	3.19e5	inactive
nw	DRSC06896		5783	2.84e5	inactive
CG13443	DRSC06403		6578	3.68e5	inactive
CG3987	DRSC15531		7938	4.08e5	inactive
CG42260	DRSC03953		4979	2.95e5	inactive
CG42260	DRSC04172		5823	3.20e5	inactive
CG42260	DRSC04385		6666	3.73e5	inactive
CG1265	DRSC08288		6495	3.62e5	inactive
Manf	DRSC14091		7236	3.42e5	inactive
mAChR-C	DRSC17890		5544	3.03e5	inactive
Obp73a	DRSC09907		7234	3.41e5	inactive
CG14929 + CG4970 + CG14930	DRSC02412		6922	3.74e5	inactive
Gbeta5	DRSC17754		6099	3.57e5	inactive
CG30389	DRSC04077		1.09e5	3.26e5	inactive
CG30389	DRSC04452		6975	4.64e5	inactive
CG31516	DRSC11994		5916	4.04e5	inactive
Gr23a	DRSC00410		8946	4.83e5	inactive
Proc	DRSC03009		5371	2.14e5	inactive
Proc	DRSC22998		3103	2.60e5	inactive
l(2)03659	DRSC07269		7012	3.31e5	inactive
l(2)03659	DRSC07638		7999	4.53e5	inactive
Mal-A3	DRSC07462		7087	3.40e5	inactive
CG9101	DRSC20152		5958	5.57e5	inactive
Faf2	DRSC03325		2.52e5	1.40e6	inactive
spir	DRSC03619		7971	5.02e5	inactive
RpL38	DRSC07818		6690	2.97e5	inactive
lncRNA:noe	DRSC22747	reporter ratio raised past the hit cutoff	4303	3.92e5	active
CG9068	DRSC07329		6555	3.46e5	inactive
CG2247	DRSC19844		8130	3.82e5	inactive
nmo	DRSC08902		5735	4.53e5	inactive
nmo	DRSC11377		6068	3.21e5	inactive
CG2076	DRSC19832		4784	3.74e5	inactive
Kdsr	DRSC14245		4007	4.31e5	inactive
Rilpl	DRSC18494		7762	5.73e5	inactive
lin-28	DRSC10261		6107	4.54e5	inactive
Mgtor	DRSC05958		6782	5.10e5	inactive
Drp1	DRSC00574		11653	5.68e5	inactive
CG1648	DRSC06610		4719	3.57e5	inactive
Glo1	DRSC06657		7266	3.38e5	inactive
CG6083	DRSC10580		7647	5.00e5	inactive
CG30384	DRSC06032		8318	5.23e5	inactive
CG14395	DRSC14852		6910	4.09e5	inactive
CG11906	DRSC06096		6638	4.32e5	inactive
Vago	DRSC19833		4863	3.29e5	inactive
CG8517	DRSC07205		7131	4.08e5	inactive
bves	DRSC20520		5282	3.64e5	inactive
bves	DRSC20554		5507	3.53e5	inactive
bves	DRSC20555		5071	3.94e5	inactive
Dim1	DRSC00563		10450	5.02e5	inactive
Mgat1	DRSC07463		6719	3.61e5	inactive
KrT95D	DRSC16725		11190	4.08e5	inactive
CG14053	DRSC17908		5871	2.90e5	inactive
CG5493 + CG5327	DRSC06938		7058	3.47e5	inactive
CG42538	DRSC09412		6235	3.91e5	inactive
Jasper	DRSC16352	reporter ratio raised past the hit cutoff	8667	4.06e5	inactive
CG9839	DRSC16574		8332	5.49e5	inactive
CG12279	DRSC14495		6200	4.83e5	inactive
CG33124	DRSC00298		8598	5.57e5	inactive
CG7896	DRSC16335		7324	3.79e5	inactive
jumu	DRSC16651		4215	3.08e5	inactive
Agpat4	DRSC10446		8125	4.57e5	inactive
Root	DRSC15972		6938	3.33e5	inactive
Tep1	DRSC03450		6466	3.52e5	inactive
CG14929 + CG4970	DRSC02411		6987	3.25e5	inactive
CG14929 + CG4970	DRSC02796		6559	3.68e5	inactive
CG12863	DRSC06203		5920	3.99e5	inactive
Atac2	DRSC02053		8576	1.78e6	inactive
Swim	DRSC04334		8275	1.03e6	inactive
ord	DRSC04706		6451	4.10e5	inactive
CG7213	DRSC10787		6478	4.57e5	inactive
mid	DRSC02977		4642	3.50e5	inactive
mid	DRSC21493		8062	4.40e5	inactive
CG30487	DRSC05377		6023	3.54e5	inactive
Eip75B	DRSC11161		6471	2.45e5	inactive
Eip75B	DRSC23047		3527	2.54e5	inactive
